Literature values as cited in patent publication US6984656B2, “Core modified porphyrins” (priority 2001, dated 2006).
Some of these results come from one statement about several compounds together. For at least one compound, name, drawing or mass did not settle the structure.

Conditions: in vivo; cited from earlier work

In the case of `Oc1cccc(-c2c3nc(c(-c4cccc(O)c4)c4ccc([nH]4)c(-c4cccc(O)c4)c4nc(c(-c5cccc(O)c5)c5ccc2[nH]5)CC4)C=C3)c1` [mTHPC, Tetra(m-hydroxyphenyl)chlorin], the “duration of skin photosensitization after administration” value is listed as “up to 6 weeks”.
